Experimental data taken from paper doi:10.1101/2019.12.18.867333.
Positions count from the first letter of the chain named. Numbers in names are those of the source. These are yes or no findings as the source states them, for the method shown. Binding seen in cells or lysates may run through a third protein. Some results given as binding are weak or reduced against the parent protein; the word gives no strength. Where a sequence is shown, tags or fusion partners need not be part of it. Blank lines part the entries; values can stand above or below the binder they belong to.

Chains of the proteins cited; added tags and fusions are not shown. Lines headed by an entry give the natural chain unless they say otherwise; changes in a name come on top.
UniProt Q9NVJ2, whole entry: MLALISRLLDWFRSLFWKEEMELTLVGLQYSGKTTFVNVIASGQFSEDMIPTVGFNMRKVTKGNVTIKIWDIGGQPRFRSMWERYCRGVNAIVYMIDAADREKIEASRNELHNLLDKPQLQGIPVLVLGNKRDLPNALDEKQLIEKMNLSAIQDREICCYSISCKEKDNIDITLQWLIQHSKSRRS
UniProt P51149, whole entry: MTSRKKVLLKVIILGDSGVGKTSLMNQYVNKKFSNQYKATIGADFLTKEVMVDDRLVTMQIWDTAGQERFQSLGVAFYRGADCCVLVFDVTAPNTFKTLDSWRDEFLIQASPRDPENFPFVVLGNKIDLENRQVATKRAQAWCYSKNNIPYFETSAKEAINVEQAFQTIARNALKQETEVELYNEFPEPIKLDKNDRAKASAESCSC

Columns and labels:
Assay in all cases: co-IP
[1] = target: T1, FLAG-VPS18 (UniProt Q9P253)
T1 sequence: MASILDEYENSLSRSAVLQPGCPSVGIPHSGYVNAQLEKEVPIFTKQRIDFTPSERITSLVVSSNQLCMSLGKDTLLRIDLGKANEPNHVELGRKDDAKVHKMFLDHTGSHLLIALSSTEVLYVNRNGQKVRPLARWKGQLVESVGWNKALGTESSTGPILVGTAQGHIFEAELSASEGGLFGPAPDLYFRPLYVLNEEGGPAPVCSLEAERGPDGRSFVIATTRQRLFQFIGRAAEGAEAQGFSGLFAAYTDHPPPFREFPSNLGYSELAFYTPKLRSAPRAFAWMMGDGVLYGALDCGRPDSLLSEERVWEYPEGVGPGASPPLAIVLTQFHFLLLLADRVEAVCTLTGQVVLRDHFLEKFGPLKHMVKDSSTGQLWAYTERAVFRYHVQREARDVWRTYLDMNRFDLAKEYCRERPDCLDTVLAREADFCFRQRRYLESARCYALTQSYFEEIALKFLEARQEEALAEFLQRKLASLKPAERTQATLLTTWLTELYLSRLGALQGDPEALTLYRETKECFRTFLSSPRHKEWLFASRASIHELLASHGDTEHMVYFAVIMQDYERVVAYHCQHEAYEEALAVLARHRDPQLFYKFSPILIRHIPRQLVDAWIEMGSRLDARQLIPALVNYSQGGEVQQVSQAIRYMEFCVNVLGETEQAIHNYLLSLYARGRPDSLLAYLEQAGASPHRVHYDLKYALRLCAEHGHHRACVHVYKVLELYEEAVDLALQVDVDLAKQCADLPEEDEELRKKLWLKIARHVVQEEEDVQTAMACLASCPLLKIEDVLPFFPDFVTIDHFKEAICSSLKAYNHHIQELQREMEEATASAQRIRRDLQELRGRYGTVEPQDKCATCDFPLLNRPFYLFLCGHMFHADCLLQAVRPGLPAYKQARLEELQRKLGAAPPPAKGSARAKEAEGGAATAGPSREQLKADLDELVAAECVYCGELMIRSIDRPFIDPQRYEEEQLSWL

[2] = target: T2, HA-VPS33A (UniProt Q96AX1)
T2 sequence: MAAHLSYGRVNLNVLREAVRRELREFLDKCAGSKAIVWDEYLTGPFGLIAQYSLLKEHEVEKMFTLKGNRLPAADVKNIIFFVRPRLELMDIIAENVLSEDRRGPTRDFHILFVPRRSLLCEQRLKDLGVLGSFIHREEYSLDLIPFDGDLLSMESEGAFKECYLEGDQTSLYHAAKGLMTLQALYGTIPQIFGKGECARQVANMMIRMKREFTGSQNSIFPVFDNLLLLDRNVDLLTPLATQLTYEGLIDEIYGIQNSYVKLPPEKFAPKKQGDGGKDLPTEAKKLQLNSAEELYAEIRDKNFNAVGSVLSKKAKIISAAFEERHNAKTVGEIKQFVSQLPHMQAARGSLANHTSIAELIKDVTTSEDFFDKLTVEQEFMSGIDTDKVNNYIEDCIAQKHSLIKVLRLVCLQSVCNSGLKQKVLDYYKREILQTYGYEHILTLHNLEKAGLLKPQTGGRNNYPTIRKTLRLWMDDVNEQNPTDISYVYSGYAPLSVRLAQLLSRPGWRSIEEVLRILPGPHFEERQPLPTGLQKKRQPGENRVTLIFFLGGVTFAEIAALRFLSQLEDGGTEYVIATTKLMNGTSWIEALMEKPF

[3] = target: GFP-Arl8b (UniProt Q9NVJ2)
[4] = target: FLAG-RAB7 (UniProt P51149)
[5] = target: FLAG-RAB7, P51149; conditions: remark: other sources report otherwise

B1: GFP-VPS41^WT (protein, UniProt P49754-1 1-854)
chain: MAEAEEQETGSLEESTDESEEEESEEEPKLKYERLSNGVTEILQKDAASCMTVHDKFLALGTHYGKVYLLDVQGNITQKFDVSPVKINQISLDESGEHMGVCSEDGKVQVFGLYSGEEFHETFDCPIKIIAVHPHFVRSSCKQFVTGGKKLLLFERSWMNRWKSAVLHEGEGNIRSVKWRGHLIAWANNMGVKIFDIISKQRITNVPRDDISLRPDMYPCSLCWKDNVTLIIGWGTSVKVCSVKERHASEMRDLPSRYVEIVSQFETEFYISGLAPLCDQLVVLSYVKEISEKTEREYCARPRLDIIQPLSETCEEISSDALTVRGFQENECRDYHLEYSEGESLFYIVSPRDVVVAKERDQDDHIDWLLEKKKYEEALMAAEISQKNIKRHKILDIGLAYINHLVERGDYDIAARKCQKILGKNAALWEYEVYKFKEIGQLKAISPYLPRGDPVLKPLIYEMILHEFLESDYEGFATLIREWPGDLYNNSVIVQAVRDHLKKDSQNKTLLKTLAELYTYDKNYGNALEIYLTLRHKDVFQLIHKHNLFSSIKDKIVLLMDFDSEKAVDMLLDNEDKISIKKVVEELEDRPELQHVYLHKLFKRDHHKGQRYHEKQISLYAEYDRPNLLPFLRDSTHCPLEKALEICQQRNFVEETVYLLSRMGNSRSALKMIMEELHDVDKAIEFAKEQDDGELWEDLILYSIDKPPFITGLLNNIGTHVDPILLIHRIKEGMEIPNLRDSLVKILQDYNLQILLREGCKKILVADSLSLLKKMHRTQMKGVLVDEENICESCLSPILPSDAAKPFSVVVFHCRHMFHKECLPMPSMNSAAQFCNICSAKNRGPGSAILEMKK
- binding [1]: binds
- binding [2]: binds

B2: GFP-VPS41^S285P (protein, UniProt P49754-1 1-854)
chain: B1 chain with S285P
- binding [1]: binds
- binding [2]: binds

B6: VPS41^R662*-APEX2-V5 (domain or fragment, UniProt P49754-1 1-661)
chain: MAEAEEQETGSLEESTDESEEEESEEEPKLKYERLSNGVTEILQKDAASCMTVHDKFLALGTHYGKVYLLDVQGNITQKFDVSPVKINQISLDESGEHMGVCSEDGKVQVFGLYSGEEFHETFDCPIKIIAVHPHFVRSSCKQFVTGGKKLLLFERSWMNRWKSAVLHEGEGNIRSVKWRGHLIAWANNMGVKIFDIISKQRITNVPRDDISLRPDMYPCSLCWKDNVTLIIGWGTSVKVCSVKERHASEMRDLPSRYVEIVSQFETEFYISGLAPLCDQLVVLSYVKEISEKTEREYCARPRLDIIQPLSETCEEISSDALTVRGFQENECRDYHLEYSEGESLFYIVSPRDVVVAKERDQDDHIDWLLEKKKYEEALMAAEISQKNIKRHKILDIGLAYINHLVERGDYDIAARKCQKILGKNAALWEYEVYKFKEIGQLKAISPYLPRGDPVLKPLIYEMILHEFLESDYEGFATLIREWPGDLYNNSVIVQAVRDHLKKDSQNKTLLKTLAELYTYDKNYGNALEIYLTLRHKDVFQLIHKHNLFSSIKDKIVLLMDFDSEKAVDMLLDNEDKISIKKVVEELEDRPELQHVYLHKLFKRDHHKGQRYHEKQISLYAEYDRPNLLPFLRDSTHCPLEKALEICQQRNFVEETVYLLS
- binding [4]: binds
- binding [3]: binds

Further lines, results first:

- binding [3]: binds
B3: VPS41^WT-APEX2-V5 (protein, UniProt P49754-1 1-854)
chain: B1 chain

- binding [4]: binds
- binding [3]: binds
B4: VPS41^S285P-APEX2-V5 (protein, UniProt P49754-1 1-854)
chain: B1 chain with S285P

- binding [5]: binds
B5: VPS41^WT-APEX2-V5, P49754-1 1-854 (protein)
chain: B1 chain
